From PubChem BioAssay AID2685 (National Center for Advancing Translational Sciences (NCATS), 2010)
Among all 320,000 compounds or so, about 2,100 (0.66%) were called active. Inconclusive results, whose numbers are uncertain, are shown with a selection of clear calls. The call rests on the fitted dose curve; in most records, active means well fitted inhibition curve with a large enough effect in the signal ratio, with a control signal flat (not every such curve was filed as active); inconclusive means small, poorly fitted or top-dose-only effect, or effect the other way, or a change in a side signal; inactive means flat fitted curve, though single readings scatter; the % refers to the signal ratio. Where the call is inconclusive, the potency comes from a doubtful curve fit.

Assay: qHTS Assay for Lipid Storage Modulators in Drosophila S3 Cells
Settings: BODIPY lipid droplet fluorescence, 18-24 h, cells fed with added oleic acid; lipid storage change, negative = inhibition: at 46.1 µM (top of the series) unless noted
Method in brief: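 Drosophila S3 cells loaded with oleic acid (400 uM, as added) and compounds at several concentrations; lipid droplets imaged by 488-nm laser-scanning cytometry, 500–530 nm intensity and object ratio to cell channel. Percent activity normalized to 20 uM Triacsin C.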
On the % scale 0 is the no-effect control and ±100 the full control effect; potency means the concentration at half of the fitted maximal effect.

Row | SMILES | lipid storage change, negative = inhibition | Potency | outcome
1 | Cc1cccc(NC(=O)CC2SC(=NC3CCCCC3)NC2=O)c1 (stereo not given) | inconclusive: -12.4% | – | –
2 | CC(O)CCc1ccc(O)cc1 (stereo not given) | inconclusive: -18.5% | – | –
3 | COC(=O)C(C)NC(=O)C12CC3CC(C1)CC(c1ccc(C)cc1)(C3)C2 (stereo not given) | inconclusive: -77.2% | – | –
4 | COc1ccc(OC)c(/C=N\NC(=O)c2c(C)nc3cc(C)ccn23)c1 | inconclusive: -12.4% | – | –
5 | C/C(=N\NC(N)=S)c1ccncc1 | inconclusive: 20% | – | –
6 | COc1cccc2cc(C(=O)NCc3ccc(Cl)cc3)c(=O)oc12 | inconclusive: 172% | – | –
7 | CNS(=O)(=O)c1ccc(C(=O)NCC(=O)NCCc2ccc3c(c2)OCCO3)cc1 | – | inconclusive: 0.164 µM [falling, partial curve, poor fit] | –
8 | Cc1ccc(S(=O)(=O)N2CCCN(Cc3nc4ccccc4c(=O)[nH]3)CC2)cc1 | inconclusive | – | –
9 | O=C(c1cccs1)N1CCN(c2nc3c(F)cc(F)cc3s2)CC1 | inconclusive: -36.2% | – | –
10 | Cc1ccc(NC(=O)CCc2nc3ccccc3c(=O)[nH]2)cc1S(=O)(=O)N1CCOCC1 | inconclusive: 28.1% | – | –
11 | NS(=O)(=O)c1ccc(NNC(=O)c2ccccc2)cc1 | inconclusive: 40% | – | –
12 | O=C(N/N=C/c1cccc(OC(=O)c2ccc3c(c2)OCO3)c1)c1cncc(Br)c1 | inconclusive: 10.1% | – | –
13 | CSc1nsc(/C=C/Nc2ccc(F)cc2F)c1C#N | inconclusive: 15.9% [at 9.22 µM] | – | –
14 | CCc1c(C)sc(NC(=O)OC)c1C(=O)N1CCOCC1 | inconclusive: -28.5% | – | –
15 | Cc1ccccc1NC(=O)c1ccc(C)c(S(=O)(=O)N2CCN(C)CC2)c1 | – | inconclusive: 29.1 µM [falling, single point] | –
16 | COc1ccc(/C=C2\SC(=S)N(C(Cc3ccccc3)C(=O)O)C2=O)cc1 (stereo not given) | inconclusive: -30.9% | – | –
17 | Cc1cnc(NC(=O)CSc2nnc(-c3ccncc3)n2C2CCCCC2)s1 | – | inconclusive: 29.1 µM [activator, single point] | –
18 | COc1ccccc1Cn1c(SCC(N)=O)nc2c(oc3ccccc32)c1=O | – | inconclusive: 0.164 µM [activator, full curve, poor fit] | –
19 | Cn1cccc1/C=C(/C#N)C(N)=S | inactive: 10.6% | – | –
20 | O=C(CSc1nc2ccccc2[nH]1)Nc1ccc(N2CCOCC2)cc1 | inconclusive: -14% | – | –
21 | CC1CCC(NC(=O)c2cc(Cl)nc3ccccc23)CC1 (stereo not given) | inconclusive: 25.7% | – | –
22 | CCc1ccc(NC(=O)C2CCN(C(=O)N3CCOc4ccccc43)CC2)cc1 | inconclusive: -5.17% | – | –
23 | Cc1cccc(C2CC(c3ccc(F)cc3)Nc3nc(N)nn32)c1 (stereo not given) | inconclusive: 1.24% [at 9.22 µM] | – | –
24 | O=S(=O)(NC1CCCCC1)c1ccc(Br)s1 | – | inconclusive: 29.1 µM [activator, partial curve, poor fit] | –
25 | N#Cc1c(NC(=O)CSc2nc(N)cc(=O)[nH]2)sc2c1CCCCCC2 | inconclusive: 55% | – | –
26 | CN(Cc1ccccc1)c1nc(N)nc(Cl)c1C=O | – | inconclusive: 3.66 µM [falling, partial curve, poor fit] | –
27 | CN(Cc1ccccc1)S(=O)(=O)c1ccc(NC(=S)NC(=O)C2CCCCC2)cc1 | inconclusive: -22.7% | – | –

From entry 5 up to 19, copied from above:
Row | SMILES | lipid storage change, negative = inhibition | Potency | outcome
5 | C/C(=N\NC(N)=S)c1ccncc1 | inconclusive: 20% | – | –
6 | COc1cccc2cc(C(=O)NCc3ccc(Cl)cc3)c(=O)oc12 | inconclusive: 172% | – | –
7 | CNS(=O)(=O)c1ccc(C(=O)NCC(=O)NCCc2ccc3c(c2)OCCO3)cc1 | – | inconclusive: 0.164 µM [falling, partial curve, poor fit] | –
8 | Cc1ccc(S(=O)(=O)N2CCCN(Cc3nc4ccccc4c(=O)[nH]3)CC2)cc1 | inconclusive | – | –
9 | O=C(c1cccs1)N1CCN(c2nc3c(F)cc(F)cc3s2)CC1 | inconclusive: -36.2% | – | –
10 | Cc1ccc(NC(=O)CCc2nc3ccccc3c(=O)[nH]2)cc1S(=O)(=O)N1CCOCC1 | inconclusive: 28.1% | – | –
11 | NS(=O)(=O)c1ccc(NNC(=O)c2ccccc2)cc1 | inconclusive: 40% | – | –
12 | O=C(N/N=C/c1cccc(OC(=O)c2ccc3c(c2)OCO3)c1)c1cncc(Br)c1 | inconclusive: 10.1% | – | –
13 | CSc1nsc(/C=C/Nc2ccc(F)cc2F)c1C#N | inconclusive: 15.9% [at 9.22 µM] | – | –
14 | CCc1c(C)sc(NC(=O)OC)c1C(=O)N1CCOCC1 | inconclusive: -28.5% | – | –
15 | Cc1ccccc1NC(=O)c1ccc(C)c(S(=O)(=O)N2CCN(C)CC2)c1 | – | inconclusive: 29.1 µM [falling, single point] | –
16 | COc1ccc(/C=C2\SC(=S)N(C(Cc3ccccc3)C(=O)O)C2=O)cc1 (stereo not given) | inconclusive: -30.9% | – | –
17 | Cc1cnc(NC(=O)CSc2nnc(-c3ccncc3)n2C2CCCCC2)s1 | – | inconclusive: 29.1 µM [activator, single point] | –
18 | COc1ccccc1Cn1c(SCC(N)=O)nc2c(oc3ccccc32)c1=O | – | inconclusive: 0.164 µM [activator, full curve, poor fit] | –
19 | Cn1cccc1/C=C(/C#N)C(N)=S | inactive: 10.6% | – | –

More results:

Row | SMILES | lipid storage change, negative = inhibition | Potency | outcome
28 | COC(=O)c1ccc(CSc2nc3ccccc3c(=O)n2CC(C)C)o1 | inconclusive: 2.83% | – | –
29 | CN(c1ccc([N+](=O)[O-])cc1C(=O)Nc1ccccc1)C1CCCCC1 | inconclusive: 7.07% | – | –
30 | O=C(O)Cc1c(C(=O)O)nnn1-c1ccc(Cl)cc1Cl | inconclusive: 19% | – | –
31 | CC(=O)NCCc1nc2cc(NC(=O)COc3cccc(C)c3)ccc2n1C | – | inconclusive: 6.51 µM [falling, single point] | –
32 | COc1ccc2nc(N3C(=O)CNC3=S)sc2c1 | inconclusive: -20.7% | – | –
33 | Clc1ccc(NCc2cccnc2)cc1 | inconclusive: 15.1% | – | –
34 | O=C(Nc1cccnc1)c1noc2c1CCCC2 | inconclusive: 3.65% | – | –
35 | O=C(NCSc1ccccc1)c1ccccc1 | inconclusive: 14.4% | – | –
36 | COc1ccc(NC(=O)C2=Cc3cccc(OC)c3OC2)cc1 | inconclusive: 7.44% | – | –
37 | CC(C(=O)Nc1ccc(S(N)(=O)=O)cc1)N1CCc2ccccc21 (stereo not given) | inconclusive: -0.0424% | – | –
38 | CN1c2ccccc2-c2nc3ccccc3n2C1c1ccncc1 (stereo not given) | – | inconclusive: 0.731 µM [activator, full curve] | –
39 | NNC(=O)[C@H]1C[C@@H]1c1ccccc1 | inconclusive: 5.05% | – | –
40 | O=C(Nc1ccc(C(=O)N2CCC(N3CCOCC3)CC2)cc1)c1ccc(Br)o1 | inconclusive: -29.8% | – | –
41 | Cc1ccc(NC(=O)/C(C#N)=C/c2cc(C)n(-c3ccc(N4CCOCC4)c([N+](=O)[O-])c3)c2C)c(C)c1 | inconclusive: -7.9% | – | –
42 | CC(=O)Nc1nonc1-c1nc2ccccc2n1CC1CC1 | – | inconclusive: 6.51 µM [activator, partial curve] | –
43 | CCOc1cc(C2Nc3ccccc3NC3=C2C(=O)CC(C)(C)C3)ccc1O (stereo not given) | inconclusive: -7.97% | – | –
44 | COC(CNC(=O)c1ccc2nc(-c3cccs3)c(-c3cccs3)nc2c1)OC | inconclusive: -22.9% | – | –
45 | CC(=O)C1=C(C)N(CC2CC2)C(=O)N[C@H]1c1cccs1 | inconclusive: -9.76% | – | –
46 | COc1cccc(O)c1CN1CCC(Oc2ccc(C(=O)NCc3ccccn3)cc2)CC1 | inconclusive: -41% | – | –
47 | CN(C)S(=O)(=O)N1CCN(C(=O)c2ccccc2Cl)CC1 | – | – | inactive [at 46.1 µM]
48 | O=C1CC(N2CCN(c3ccc(O)cc3)CC2)C(=O)N1Cc1cccs1 (stereo not given) | inconclusive: -44.4% | – | –
49 | CCOC(=O)c1c(C)nc2sc(C(=O)Nc3ccccc3)c(N)c2c1-c1ccc(OC)cc1 | – | inconclusive: 23.1 µM [activator, single point] | –
50 | CCCn1c(NC(=O)C2CCN(C(=O)c3ccccc3C)CC2)nc2ccccc21 | inconclusive: 8.09% | – | –
51 | CCC(O)C(C)(C)C (stereo not given) | – | inconclusive: 25.9 µM [activator, single point] | –
52 | CCOc1ccc(NCc2ccccc2OCc2cccc(F)c2)cc1 | inconclusive: -19.2% | – | –
53 | COc1ccc(-n2c(COc3ccc(C)cc3)nnc2SCc2ccc(C#N)cc2)cc1 | – | inconclusive: 0.231 µM [activator, full curve, poor fit] | –
54 | N#Cc1c(NC(=S)NC(=O)c2ccccc2)sc2c1CCN(CCc1ccccc1)C2 | – | inconclusive: 29.1 µM [falling, single point] | –

Row | SMILES | lipid storage change, negative = inhibition | Potency | outcome
55 | CCCN1CCC(NC23CC4CC(CC(C4)C2)C3)CC1 | inconclusive: 11.7% | – | –
56 | O=C(CN1CCN(c2ccc(O)cc2)CC1)Nc1ccc(SC(F)F)cc1 | inconclusive: -29.1% | – | –
57 | CCN1CCN(CCCNC(=O)CCCn2nc(C)c3sc4ccccc4c3c2=O)CC1 | inconclusive: 18.7% | – | –
58 | CC1(C)Nc2ccccc2C(=O)N1c1ccccc1 | inconclusive: 4.52% | – | –
59 | CCn1c(=O)c(C(=O)Nc2ccccc2C)c(O)c2ccccc21 | inactive: 5.2% | – | –
60 | CCOC(=O)C1(Cc2cccc(OC)c2)CCN(CCO)CC1 | inconclusive: -8.46% | – | –
61 | O=C(c1c[nH]c2ccccc12)C(Cl)c1ccccc1 (stereo not given) | inconclusive: -14.9% | – | –
62 | Cc1cc(=O)oc2cc(OCC(=O)NC3CCN(Cc4ccccc4)CC3)c(Cl)cc12 | inconclusive: -100% | – | –
63 | C=CCOCC(O)Cn1c(N2CCCC2)nc2c1c(=O)n(C)c(=O)n2C (stereo not given) | – | inconclusive: 29.1 µM [activator, single point] | –
64 | Cc1cccc(-c2nsc(SCC(=O)c3ccc(Cl)cc3)n2)c1 | – | inconclusive: 7.31 µM [activator, partial curve] | –
65 | CC(=O)c1ccc(NCC(=O)N2CCN(S(=O)(=O)c3ccccc3)CC2)cc1 | – | inconclusive: 6.51 µM [falling, single point] | –
66 | C[C@H](NC(=O)C1CC(=O)N(c2ccc3c(c2)OCCO3)C1)C(=O)NC1CCCC1 (stereo not given in full) | inconclusive: -22% | – | –
67 | N#CCCN(C(=O)COC(=O)CCc1nc2ccccc2c(=O)[nH]1)c1ccc(F)cc1 | inconclusive: 11.5% | – | –
68 | O=C(Oc1ccccc1C(=O)N1CCOCC1)c1ccc(F)cc1 | inconclusive: -18.1% | – | –
69 | CC(C)N1C(=O)S/C(=C\c2ccc(-c3ccc(Cl)c(C(=O)O)c3)o2)C1=O | – | inconclusive: 29.1 µM [activator, single point] | –
70 | CCN(CC)CCCNc1nc2cc(OC)c(OC)cc2c2nc(-c3cccnc3)nn12 | inconclusive: -74.7% | – | –
71 | CN(C)S(=O)(=O)N1CCN(CC(O)COc2ccc(-c3ccccc3)cc2)CC1 (stereo not given) | inconclusive: -18.9% | – | –
72 | COc1ccc(CNC(=O)CS(=O)(=O)Cc2nc(-c3cccc(OC)c3)oc2C)cc1 | – | inconclusive: 29.1 µM [falling, single point] | –
73 | CC1=[N+]([O-])C(N2CCOCC2)C(O)(c2ccccc2)C1 (stereo not given) | inconclusive: -5.58% | – | –
74 | CCCN1C(=O)/C(=C/c2c(NCCCOC(C)C)nc3c(C)cccn3c2=O)SC1=S | inconclusive: 8.81% | – | –
75 | OC(COC(c1ccccc1)c1ccccc1)CN1CCc2ccccc2C1 (stereo not given) | inconclusive: 14.2% | – | –
76 | CCOc1ccc(NC(=O)CCCCCN2C(=O)[C@@H]3Cc4ccccc4CN3C2=O)cc1 | – | inconclusive: 0.58 µM [activator, single point] | –
77 | CCOc1ccc(C(=O)CCC(=O)NN2C(=O)NC3(CCCCC3)C2=O)cc1 | inconclusive: -36.4% | – | –
78 | O=C(Nc1cccc(F)c1)C1CCN(C(=O)NCc2ccccc2)CC1 | inconclusive: -68% | – | –
79 | COc1cc(N/C(N)=N/c2nc(C)cc(C)n2)cc(OC)c1 | – | inconclusive: 29.1 µM [activator, single point] | –
80 | CCCCCNC(=O)c1ccc2c(=O)n(CCOC)c(=O)[nH]c2c1 | inconclusive: -6.2% | – | –
